Source: patent US20230107277A1, “SUBSTITUTED PYRIDAZINE COMPOUND” (Astellas Pharma Inc., priority 2020, published 2023)

Tested on: 3T3
Conditions: ICH S10 / OECD guideline 432 in vitro 3T3 NRU phototoxicity test

Q: For Cc1c(N[C@@H]2CCCC[C@H]2O)nnc(-c2ccc(C(F)(F)F)cc2O)c1C [Example 63, 2-(6-{[(1R,2R)-2-hydroxycyclohexyl]amino}-4,5-dimethylpyridazin-3-yl)-5-(trifluoromethyl)phenol], which phototoxic effect is on record?
A: no phototoxic effect
